Data reported in the supplement of paper PMC11264405.

How the values were obtained:
Experiment in all cases: minimum inhibitory concentration
imipenem = compound: C[C@@H](O)[C@H]1C(=O)N2C(C(=O)O)=C(SCCNC=N)C[C@H]12 [imipenem]
fidaxomicin = compound: CCc1c(Cl)c(O)c(Cl)c(O)c1C(=O)O[C@H]1[C@H](O)[C@H](OC)[C@H](OC/C2=C\C=C\C[C@H](O)/C(C)=C/[C@H](CC)[C@@H](O[C@@H]3OC(C)(C)[C@@H](OC(=O)C(C)C)[C@H](O)[C@@H]3O)/C(C)=C/C(C)=C/C[C@@H]([C@@H](C)O)OC2=O)O[C@@H]1C [fidaxomicin]
meropenem = compound: C[C@@H](O)[C@H]1C(=O)N2C(C(=O)O)=C(S[C@@H]3CN[C@H](C(=O)N(C)C)C3)[C@H](C)[C@H]12 [meropenem]
tigecycline = compound: CN(C)c1cc(NC(=O)CNC(C)(C)C)c(O)c2c1C[C@H]1C[C@H]3[C@H](N(C)C)C(O)=C(C(N)=O)C(=O)[C@@]3(O)C(O)=C1C2=O [tigecycline]
metronidazole = compound: Cc1ncc([N+](=O)[O-])n1CCO [metronidazole]
rifampicin = compound: CO[C@H]1/C=C/O[C@@]2(C)Oc3c(C)c(O)c4c(O)c(c(/C=N/N5CCN(C)CC5)c(O)c4c3C2=O)NC(=O)/C(C)=C\C=C\[C@H](C)[C@H](O)[C@@H](C)[C@@H](O)[C@@H](C)[C@H](OC(C)=O)[C@@H]1C [rifampicin]
vancomycin = compound: CN[C@H](CC(C)C)C(=O)N[C@H]1C(=O)N[C@@H](CC(N)=O)C(=O)N[C@H]2C(=O)N[C@H]3C(=O)N[C@H](C(=O)N[C@H](C(=O)O)c4cc(O)cc(O)c4-c4cc3ccc4O)[C@H](O)c3ccc(c(Cl)c3)Oc3cc2cc(c3O[C@@H]2O[C@H](CO)[C@@H](O)[C@H](O)[C@H]2O[C@H]2C[C@](C)(N)[C@H](O)[C@H](C)O2)Oc2ccc(cc2Cl)[C@H]1O [vancomycin]
clindamycin = compound: CCC[C@@H]1C[C@@H](C(=O)N[C@@H]([C@H]2O[C@H](SC)[C@H](O)[C@@H](O)[C@H]2O)[C@H](C)Cl)N(C)C1 [clindamycin]
linezolid = compound: CC(=O)NC[C@H]1CN(c2ccc(N3CCOCC3)c(F)c2)C(=O)O1 [linezolid]

Test System | minimum inhibitory concentration (imipenem) | minimum inhibitory concentration (fidaxomicin) | minimum inhibitory concentration (meropenem) | minimum inhibitory concentration (tigecycline) | minimum inhibitory concentration (metronidazole) | minimum inhibitory concentration (rifampicin) | minimum inhibitory concentration (vancomycin) | minimum inhibitory concentration (clindamycin) | minimum inhibitory concentration (linezolid)
Clostridioides difficile PCR ribotype 078 isolate #186 (European region: East, country: Poland, isolate source: Human, ribotype: 078) | 2 mg/L | 0.06 mg/L | 2 mg/L | < 0.03 mg/L | 0.25 mg/L | < 1 ng/mL | 0.5 mg/L | 16 mg/L | 2 mg/L
Clostridioides difficile PCR ribotype 078 isolate #187 (European region: North, country: UK, isolate source: Human, ribotype: 078) | 1 mg/L | 0.125 mg/L | 2 mg/L | < 0.03 mg/L | 0.25 mg/L | < 1 ng/mL | 0.5 mg/L | 8 mg/L | 2 mg/L
Clostridioides difficile PCR ribotype 078 isolate #188 (European region: North, country: UK, isolate source: Human, ribotype: 078) | 2 mg/L | 0.06 mg/L | 2 mg/L | < 0.03 mg/L | < 0.125 mg/L | < 1 ng/mL | 1 mg/L | 1 mg/L | 2 mg/L
Clostridioides difficile PCR ribotype 078 isolate #189 (European region: South, country: Spain, isolate source: Human, ribotype: 078) | 4 mg/L | 0.03 mg/L | 2 mg/L | 0.06 mg/L | < 0.125 mg/L | 2 ng/mL | 1 mg/L | 4 mg/L | 2 mg/L
Clostridioides difficile PCR ribotype 078 isolate #190 (European region: South, country: Greece, isolate source: Human, ribotype: 078) | 1 mg/L | 0.03 mg/L | 2 mg/L | < 0.03 mg/L | 0.25 mg/L | < 1 ng/mL | 1 mg/L | 8 mg/L | 2 mg/L
Clostridioides difficile PCR ribotype 078 isolate #191 (European region: West, country: Netherlands, isolate source: Human, ribotype: 078) | 2 mg/L | 0.03 mg/L | 2 mg/L | 0.06 mg/L | 0.25 mg/L | < 1 ng/mL | 1 mg/L | 8 mg/L | 2 mg/L
Clostridioides difficile PCR ribotype 078 isolate #192 (European region: West, country: Netherlands, isolate source: Human, ribotype: 078) | 1 mg/L | 0.03 mg/L | 2 mg/L | < 0.03 mg/L | 0.25 mg/L | < 1 ng/mL | 0.5 mg/L | 8 mg/L | 0.25 mg/L
Clostridioides difficile PCR ribotype 078 isolate #193 (European region: South, country: Italy, isolate source: Human, ribotype: 078) | 2 mg/L | 0.03 mg/L | 2 mg/L | 0.06 mg/L | < 0.125 mg/L | < 1 ng/mL | 1 mg/L | 4 mg/L | 2 mg/L
Clostridioides difficile PCR ribotype 078 isolate #333 (European region: West, country: Austria, isolate source: Animal, ribotype: 078) | 4 mg/L | 0.03 mg/L | 4 mg/L | 0.06 mg/L | 0.25 mg/L | < 1 ng/mL | 0.5 mg/L | 2 mg/L | 4 mg/L
Clostridioides difficile PCR ribotype 078 isolate #334 (European region: West, country: Austria, isolate source: Animal, ribotype: 078) | 2 mg/L | 0.03 mg/L | 4 mg/L | 0.06 mg/L | 0.25 mg/L | < 1 ng/mL | 1 mg/L | 2 mg/L | 2 mg/L
Clostridioides difficile PCR ribotype 078 isolate #335 (European region: West, country: Austria, isolate source: Animal, ribotype: 078) | 2 mg/L | 0.06 mg/L | 2 mg/L | 0.125 mg/L | < 0.125 mg/L | < 1 ng/mL | 1 mg/L | 2 mg/L | 2 mg/L
Clostridioides difficile PCR ribotype 078 isolate #336 (European region: South, country: Spain, isolate source: Animal, ribotype: 078) | 2 mg/L | 0.06 mg/L | 2 mg/L | < 0.03 mg/L | 0.25 mg/L | < 1 ng/mL | 1 mg/L | 4 mg/L | 2 mg/L
Clostridioides difficile PCR ribotype 078 isolate #337 (European region: South, country: Spain, isolate source: Animal, ribotype: 078) | 2 mg/L | 0.03 mg/L | 2 mg/L | < 0.03 mg/L | 0.25 mg/L | < 1 ng/mL | 1 mg/L | 4 mg/L | 2 mg/L
Clostridioides difficile PCR ribotype 078 isolate #338 (European region: South, country: Spain, isolate source: Animal, ribotype: 078) | 2 mg/L | 0.06 mg/L | 2 mg/L | < 0.03 mg/L | 0.25 mg/L | < 1 ng/mL | 1 mg/L | > 128 mg/L | 2 mg/L
Clostridioides difficile PCR ribotype 078 isolate #339 (European region: South, country: Spain, isolate source: Animal, ribotype: 078) | 2 mg/L | 0.06 mg/L | 2 mg/L | < 0.03 mg/L | 0.25 mg/L | < 1 ng/mL | 1 mg/L | 4 mg/L | 2 mg/L
Clostridioides difficile PCR ribotype 078 isolate #340 (European region: South, country: Spain, isolate source: Animal, ribotype: 078) | 4 mg/L | 0.06 mg/L | 2 mg/L | < 0.03 mg/L | 0.25 mg/L | < 1 ng/mL | 1 mg/L | 8 mg/L | 2 mg/L
Clostridioides difficile PCR ribotype 078 isolate #341 (European region: East, country: Romania, isolate source: Animal, ribotype: 078) | 4 mg/L | 0.06 mg/L | 2 mg/L | < 0.03 mg/L | 0.25 mg/L | < 1 ng/mL | 1 mg/L | 8 mg/L | 2 mg/L
Clostridioides difficile PCR ribotype 078 isolate #342 (European region: East, country: Romania, isolate source: Animal, ribotype: 078) | 4 mg/L | 0.06 mg/L | 2 mg/L | < 0.03 mg/L | 0.25 mg/L | < 1 ng/mL | 1 mg/L | 8 mg/L | 2 mg/L
Clostridioides difficile PCR ribotype 078 isolate #343 (European region: West, country: France, isolate source: Animal, ribotype: 078) | 2 mg/L | 0.03 mg/L | 2 mg/L | < 0.03 mg/L | 0.25 mg/L | < 1 ng/mL | 0.5 mg/L | 16 mg/L | 2 mg/L
Clostridioides difficile PCR ribotype 078 isolate #344 (European region: West, country: France, isolate source: Animal, ribotype: 078) | 2 mg/L | 0.06 mg/L | 2 mg/L | < 0.03 mg/L | 0.25 mg/L | < 1 ng/mL | 1 mg/L | 2 mg/L | 2 mg/L
Clostridioides difficile PCR ribotype 078 isolate #345 (European region: West, country: France, isolate source: Animal, ribotype: 078) | 2 mg/L | 0.03 mg/L | 2 mg/L | < 0.03 mg/L | 0.25 mg/L | < 1 ng/mL | 1 mg/L | 2 mg/L | 2 mg/L
Clostridioides difficile PCR ribotype 078 isolate #346 (European region: West, country: France, isolate source: Animal, ribotype: 078) | 2 mg/L | 0.03 mg/L | 2 mg/L | < 0.03 mg/L | 0.25 mg/L | < 1 ng/mL | 0.5 mg/L | 2 mg/L | 2 mg/L
Clostridioides difficile PCR ribotype 078 isolate #347 (European region: West, country: Austria, isolate source: Animal, ribotype: 078) | 2 mg/L | 0.03 mg/L | 2 mg/L | 0.06 mg/L | 0.25 mg/L | < 1 ng/mL | 2 mg/L | 16 mg/L | 2 mg/L
Clostridioides difficile PCR ribotype 078 isolate #348 (European region: West, country: Netherlands, isolate source: Animal, ribotype: 078) | 2 mg/L | 0.03 mg/L | 4 mg/L | < 0.03 mg/L | 0.25 mg/L | < 1 ng/mL | 1 mg/L | 2 mg/L | 2 mg/L
Clostridioides difficile PCR ribotype 078 isolate #349 (European region: West, country: France, isolate source: Animal, ribotype: 078) | 2 mg/L | 0.03 mg/L | 2 mg/L | 0.06 mg/L | < 0.125 mg/L | < 1 ng/mL | 1 mg/L | 2 mg/L | 2 mg/L
Clostridioides difficile PCR ribotype 078 isolate #350 (European region: South, country: Spain, isolate source: Animal, ribotype: 078) | 1 mg/L | 0.03 mg/L | 4 mg/L | 0.06 mg/L | < 0.125 mg/L | < 1 ng/mL | 0.5 mg/L | 2 mg/L | 2 mg/L

Single records (already shown). Values in the order: minimum inhibitory concentration (imipenem) | minimum inhibitory concentration (fidaxomicin) | minimum inhibitory concentration (meropenem) | minimum inhibitory concentration (tigecycline) | minimum inhibitory concentration (metronidazole) | minimum inhibitory concentration (rifampicin) | minimum inhibitory concentration (vancomycin) | minimum inhibitory concentration (clindamycin) | minimum inhibitory concentration (linezolid)
Clostridioides difficile PCR ribotype 078 isolate #340 (European region: South, country: Spain, isolate source: Animal, ribotype: 078) is entered as 4 mg/L | 0.06 mg/L | 2 mg/L | < 0.03 mg/L | 0.25 mg/L | < 1 ng/mL | 1 mg/L | 8 mg/L | 2 mg/L
Clostridioides difficile PCR ribotype 078 isolate #335 (European region: West, country: Austria, isolate source: Animal, ribotype: 078) is entered as 2 mg/L | 0.06 mg/L | 2 mg/L | 0.125 mg/L | < 0.125 mg/L | < 1 ng/mL | 1 mg/L | 2 mg/L | 2 mg/L
